According to patent US10563263B2, “Genetic polymorphisms associated with statin response and cardiovascular diseases, methods of detection and uses thereof” (CELERA CORPORATION, priority 2010, dated 2020):
Further values from the same series stand in other lists.

Tested on: CVD (CHD or stroke)
Assay: WOSCOPS: SNP by pravastatin treatment interaction, logistic regression (synergy index), CVD endpoint
Type: in vivo, human
From the text: CARE was a secondary prevention trial and WOSCOPS was a primary prevention trial.
The CHD endpoint was defined in the analyses herein of CARE as a composite endpoint of fatal CHD, definite non-fatal MI, or revascularization, and was defined in the analyses herein of WOSCOPS as a composite endpoint of death from CHD, nonfatal MI, or revascularization. In both the CARE and WOSCOPS analyses herein, the CVD endpoint was defined as a composite endpoint of CHD or stroke. […] Revascularization, which can include percutaneous transluminal coronary angioplasty (PTCA), stent placement, and coronary artery bypass graft (CABG), are medical interventions that indicate the presence of CHD.
Cohort and case-only study designs were used to identify SNPs associated with response to statin treatment.
For each SNP, a logistic regression model having treatment status as the dependent variable and SNP as the independent predictor variable was performed, with terms for age, sex and race included in the model as covariates. The anti-log of the regression coefficient corresponding to the SNP is an estimate of the synergy index (SI) (Davis et al., “Imputing gene-treatment interactions when the genotype distribution is unknown using case-only and putative placebo analyses-a new method for the Genetics of Hypertension Associated Treatment (GenHAT) study”, Statistics in Medicine 23: (2004), pages 2413-2427). The SI is a ratio of odds ratios: for example in the CARE and WOSCOPS studies, the SI represents the factor by which the odds-ratio of statin treatment, compared with placebo, among major homozygous individuals is multiplied by in order to obtain the odds-ratio of treatment vs. placebo among heterozygous individuals; and multiplied by a second time to obtain the odds-ratio of treatment vs. placebo in minor homozygous individuals. […] In a randomized clinical trial, genotype and treatment are independent by design.

CC[C@H](C)C(=O)O[C@H]1C[C@H](O)C=C2C=C[C@H](C)[C@H](CC[C@@H](O)C[C@@H](O)CC(=O)O)[C@H]21 [Pravastatin, pravastatin]
OR (rs2063591 allele C DOM, Imputed): 0.6108 | OR (rs2095586 allele A DOM, Imputed): 1.458 | OR (rs2095606 allele A DOM, Imputed): 0.6502 | OR (rs2102374 allele A ADD, Imputed): 0.7364 | OR (rs2102374 allele A DOM, Imputed): 0.6065 | OR (rs2108426 allele C DOM, Imputed): 0.6887 | OR (rs2110664 allele A DOM, Imputed): 1.806 | OR (rs2132242 allele A ADD, Imputed): 0.6841 | OR (rs2132242 allele A DOM, Imputed): 0.62 | OR (rs2158958 allele A DOM, Imputed): 0.6887 | OR (rs2158961 allele G DOM, Imputed): 0.7035 | OR (rs2163046 allele A DOM, Imputed): 1.511 | OR (rs2180286 allele G DOM, Imputed): 0.7195 | OR (rs2180684 allele A DOM, Imputed): 1.612 | OR (rs2188079 allele C ADD, Imputed): 1.535 | OR (rs2190598 allele T DOM, Imputed): 0.6887 | OR (rs2190600 allele A DOM, Imputed): 0.6884 | OR (rs2224184 allele T DOM, Genotyped): 0.7175 | OR (rs2247066 allele A DOM, Imputed): 0.6603 | OR (rs2248236 allele C ADD, Imputed): 0.7444 | OR (rs2248236 allele C DOM, Imputed): 0.6416 | OR (rs2265733 allele C ADD, Imputed): 0.7364 | OR (rs2265733 allele C DOM, Imputed): 0.6065 | OR (rs2270584 allele A ADD, Imputed): 0.6858 | OR (rs2270584 allele A DOM, Imputed): 0.6021 | OR (rs2270586 allele A ADD, Imputed): 0.6858 | OR (rs2270586 allele A DOM, Imputed): 0.6021 | OR (rs2317057 allele T ADD, Imputed): 0.7197 | OR (rs2322100 allele T REC, Genotyped): 2.767 | OR (rs2322101 allele A REC, Imputed): 2.779 | OR (rs2327929 allele G REC, Imputed): 1.493 | OR (rs2332844 allele A ADD, Imputed): 1.78 | OR (rs2332844 allele A REC, Imputed): 1.78 | OR (rs2349170 allele G DOM, Imputed): 1.327 | OR (rs2356722 allele G DOM, Imputed): 0.6675 | OR (rs2364956 allele T ADD, Imputed): 1.693 | OR (rs2373793 allele G ADD, Imputed): 1.58 | OR (rs2373793 allele G DOM, Imputed): 1.878 | OR (rs2383903 allele G DOM, Imputed): 0.6499 | OR (rs2387945 allele G DOM, Imputed): 1.335 | OR (rs7032231, allele A (A1), model ADD, Imputed, WOSCOPS): 1.467 | OR (rs7067638, allele T (A1), model DOM, Imputed, WOSCOPS): 1.82 | OR (rs7077799, allele A (A1), model DOM, Imputed, WOSCOPS): 1.458 | OR (rs7082163, allele A (A1), model ADD, Imputed, WOSCOPS): 1.817 | OR (rs7082163, allele A (A1), model DOM, Imputed, WOSCOPS): 1.875 | OR (rs7089661, allele C (A1), model DOM, Imputed, WOSCOPS): 1.458 | OR (rs7101319, allele C (A1), model ADD, Imputed, WOSCOPS): 1.817 | OR (rs7101319, allele C (A1), model DOM, Imputed, WOSCOPS): 1.875 | OR (rs7134262, allele T (A1), model REC, Imputed, WOSCOPS): 1.627 | OR (rs7138300, allele C (A1), model ADD, Imputed, WOSCOPS): 0.7714 | OR (rs7138300, allele C (A1), model DOM, Imputed, WOSCOPS): 0.5986 | OR (rs7163931, allele G (A1), model REC, Imputed, WOSCOPS): 3.183 | OR (rs7171486, allele G (A1), model DOM, Genotyped, WOSCOPS): 0.5774 | OR (rs7172611, allele G (A1), model REC, Imputed, WOSCOPS): 3.183 | OR (rs7172689, allele T (A1), model REC, Imputed, WOSCOPS): 3.183 | OR (rs7180245, allele A (A1), model REC, Imputed, WOSCOPS): 3.183 | OR (rs7220603, allele A (A1), model ADD, Genotyped, WOSCOPS): 0.6302 | OR (rs7282518, allele T (A1), model ADD, Imputed, WOSCOPS): 1.518 | OR (rs7283476, allele T (A1), model ADD, Imputed, WOSCOPS): 0.6337 | OR (rs7283476, allele T (A1), model DOM, Imputed, WOSCOPS): 0.6518 | OR (rs7298255, allele A (A1), model ADD, Imputed, WOSCOPS): 0.7591 | OR (rs7298255, allele A (A1), model DOM, Imputed, WOSCOPS): 0.594 | OR (rs7305832, allele C (A1), model REC, Imputed, WOSCOPS): 1.616 | OR (rs7392620, allele C (A1), model ADD, Imputed, WOSCOPS): 0.7494 | OR (rs7446891, allele G (A1), model DOM, Imputed, WOSCOPS): 0.6887 | OR (rs7448641, allele C (A1), model ADD, Imputed, WOSCOPS): 0.309 | OR (rs7448641, allele C (A1), model DOM, Imputed, WOSCOPS): 0.309 | OR (rs7499402, allele A (A1), model ADD, Genotyped, WOSCOPS): 1.39 | OR (rs7529851, allele A (A1), model ADD, Imputed, WOSCOPS): 0.6637 | OR (rs7573951, allele G (A1), model ADD, Imputed, WOSCOPS): 0.6931 | OR (rs7599198, allele T (A1), model DOM, Imputed, WOSCOPS): 0.5474 | OR (rs7600050, allele C (A1), model ADD, Imputed, WOSCOPS): 1.511 | OR (rs7607712, allele T (A1), model ADD, Imputed, WOSCOPS): 1.551 | OR (rs7607712, allele T (A1), model DOM, Imputed, WOSCOPS): 1.544 | OR (rs7621663, allele G (A1), model ADD, Imputed, WOSCOPS): 1.447 | OR (rs7621663, allele G (A1), model REC, Imputed, WOSCOPS): 1.785 | OR (rs7626584, allele G (A1), model ADD, Imputed, WOSCOPS): 0.5782 | OR (rs7684899, allele C (A1), model ADD, Imputed, WOSCOPS): 0.7399 | OR (rs7684899, allele C (A1), model DOM, Imputed, WOSCOPS): 0.6359 | OR (rs7701604, allele G (A1), model ADD, Imputed, WOSCOPS): 0.309 | OR (rs7701604, allele G (A1), model DOM, Imputed, WOSCOPS): 0.309 | OR (rs7703676, allele C (A1), model ADD, Imputed, WOSCOPS): 0.309 | OR (rs7703676, allele C (A1), model DOM, Imputed, WOSCOPS): 0.309 | OR (rs7708491, allele C (A1), model REC, Imputed, WOSCOPS): 0.5862 | OR (rs7711358, allele A (A1), model DOM, Imputed, WOSCOPS): 0.7035 | OR (rs7719448, allele G (A1), model REC, Imputed, WOSCOPS): 0.5823 | OR (rs7724761, allele T (A1), model REC, Imputed, WOSCOPS): 0.5608 | OR (rs7742476, allele T (A1), model DOM, Imputed, WOSCOPS): 1.408 | OR (rs7762993, allele A (A1), model ADD, Imputed, WOSCOPS): 1.384 | OR (rs7762993, allele A (A1), model DOM, Imputed, WOSCOPS): 1.506 | OR (rs7767265, allele G (A1), model ADD, Imputed, WOSCOPS): 1.375 | OR (rs7767265, allele G (A1), model DOM, Imputed, WOSCOPS): 1.584 | OR (rs7768128, allele G (A1), model REC, Imputed, WOSCOPS): 0.4807 | OR (rs7771264, allele T (A1), model DOM, Imputed, WOSCOPS): 0.5289 | OR (rs7773151, allele C (A1), model DOM, Genotyped, WOSCOPS): 0.5304 | OR (rs7773210, allele A (A1), model DOM, Genotyped, WOSCOPS): 0.5304 | OR (rs7808536, allele G (A1), model DOM, Imputed, WOSCOPS): 1.939 | OR (rs7843510, allele G (A1), model DOM, Genotyped, WOSCOPS): 1.603 | OR (rs7902140, Imputed, allele C, ADD model, WOSCOPS): 0.622 | OR (rs7921834, Imputed, allele C, DOM model, WOSCOPS): 1.351 | OR (rs7939893, Imputed, allele C, ADD model, WOSCOPS): 0.8314 | OR (rs7939893, Imputed, allele C, DOM model, WOSCOPS): 0.6782 | OR (rs7955901, Imputed, allele C, ADD model, WOSCOPS): 0.7632 | OR (rs7955901, Imputed, allele C, DOM model, WOSCOPS): 0.5772 | OR (rs7956274, Imputed, allele T, ADD model, WOSCOPS): 0.7489 | OR (rs7956274, Imputed, allele T, DOM model, WOSCOPS): 0.571 | OR (rs7957932, Imputed, allele G, ADD model, WOSCOPS): 0.7622 | OR (rs7957932, Imputed, allele G, DOM model, WOSCOPS): 0.5724 | OR (rs7984294, Imputed, allele A, DOM model, WOSCOPS): 1.992 | OR (rs7994286, Imputed, allele A, ADD model, WOSCOPS): 0.5714 | OR (rs7994286, Imputed, allele A, DOM model, WOSCOPS): 0.5491 | OR (rs8038229, Genotyped, allele A, ADD model, WOSCOPS): 0.6055 | OR (rs8038229, Genotyped, allele A, DOM model, WOSCOPS): 0.534 | OR (rs8043336, Imputed, allele C, REC model, WOSCOPS): 0.3477 | OR (rs8054431, Imputed, allele T, DOM model, WOSCOPS): 2.022 | OR (rs8066502, Imputed, allele T, DOM model, WOSCOPS): 0.6823 | OR (rs8068714, Imputed, allele T, DOM model, WOSCOPS): 0.7037 | OR (rs9301653, Imputed, allele T, ADD model, WOSCOPS): 0.5758 | OR (rs9301653, Imputed, allele T, DOM model, WOSCOPS): 0.554
